The target in the assay is β-tubulin (in the porcine brain microtubule) (porcine). Kind of assay: cryo-EM structure.

No constants are given. Whether binding was seen depends on the method and setting. A result given as binding can be weak or reduced; the word gives no strength.

B1: KIF20A 1-565 (full-length motor domain, monomeric construct) (domain or fragment, UniProt P97329 1-565)
chain: MSHRILSPPAGLLSDEDVVDSPILESTAADLRSVVRKDLLSDCSVISASLEDKQALLEDTSEKVKVYLRIRPFLTSELDRQEDQGCVCIENTETLVLQAPKDSFALKSNERGVGQATHKFTFSQIFGPEVGQVAFFNLTMKEMVKDVLKGQNWLIYTYGVTNSGKTYTIQGTSKDAGILPQSLALIFNSLQGQLHPTPDLKPLLSNEVIWLDSKQIRQEEMKKLSLLIGGLQEEELSTSVKKRVHTESRIGASNSFDSGVAGLSSTSQFTSSSQLDETSQLWAQPDTVPVSVPADIRFSVWISFFEIYNELLYDLLEPPSHQHKRQTLRLCEDQNGNPYVKDLNWIHVRDVEEAWKLLKVGRKNQSFASTHMNQQSSRSHSIFSIRILHLQGEGDIVPKISELSLCDLAGSERCKHQKSGERLKEAGNINTSLHTLGRCIAALRQNQQNRSKQNLIPFRDSKLTRVFQGFFTGRGRSCMIVNVNPCASTYDETLHAAKFSALASQLVHAPPVHLGIPSLHSFIKKHSPQVGPGLEKEDKADSDLEDSPEDEADVSVYGKEELLQV
Turning to B1, the binding result is recorded as “binds”.

Source of the values: doi:10.1101/2022.11.10.515925 (bioRxiv, 2022).
